In publication PMC11903878, “Structural mechanisms for centrosomal recruitment and organization of the microtubule nucleator γ-TuRC” (Nature Communications, 2025):
No constants are given. Whether binding was seen depends on the method and setting. Some binding calls cover weakened binding; strength is not graded here.

Sequences of proteins named here, by UniProt entry; tags and fusion partners are left off. A change or cut given only in a name is not applied to a line headed by its entry.
UniProt Q9NVX0: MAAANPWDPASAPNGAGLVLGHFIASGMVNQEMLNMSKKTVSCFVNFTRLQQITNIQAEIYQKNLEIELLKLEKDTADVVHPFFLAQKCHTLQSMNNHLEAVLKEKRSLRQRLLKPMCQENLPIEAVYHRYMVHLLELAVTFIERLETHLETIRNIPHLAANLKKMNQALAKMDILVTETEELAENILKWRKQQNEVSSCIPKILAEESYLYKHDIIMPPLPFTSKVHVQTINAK
UniProt Q7Z4H7: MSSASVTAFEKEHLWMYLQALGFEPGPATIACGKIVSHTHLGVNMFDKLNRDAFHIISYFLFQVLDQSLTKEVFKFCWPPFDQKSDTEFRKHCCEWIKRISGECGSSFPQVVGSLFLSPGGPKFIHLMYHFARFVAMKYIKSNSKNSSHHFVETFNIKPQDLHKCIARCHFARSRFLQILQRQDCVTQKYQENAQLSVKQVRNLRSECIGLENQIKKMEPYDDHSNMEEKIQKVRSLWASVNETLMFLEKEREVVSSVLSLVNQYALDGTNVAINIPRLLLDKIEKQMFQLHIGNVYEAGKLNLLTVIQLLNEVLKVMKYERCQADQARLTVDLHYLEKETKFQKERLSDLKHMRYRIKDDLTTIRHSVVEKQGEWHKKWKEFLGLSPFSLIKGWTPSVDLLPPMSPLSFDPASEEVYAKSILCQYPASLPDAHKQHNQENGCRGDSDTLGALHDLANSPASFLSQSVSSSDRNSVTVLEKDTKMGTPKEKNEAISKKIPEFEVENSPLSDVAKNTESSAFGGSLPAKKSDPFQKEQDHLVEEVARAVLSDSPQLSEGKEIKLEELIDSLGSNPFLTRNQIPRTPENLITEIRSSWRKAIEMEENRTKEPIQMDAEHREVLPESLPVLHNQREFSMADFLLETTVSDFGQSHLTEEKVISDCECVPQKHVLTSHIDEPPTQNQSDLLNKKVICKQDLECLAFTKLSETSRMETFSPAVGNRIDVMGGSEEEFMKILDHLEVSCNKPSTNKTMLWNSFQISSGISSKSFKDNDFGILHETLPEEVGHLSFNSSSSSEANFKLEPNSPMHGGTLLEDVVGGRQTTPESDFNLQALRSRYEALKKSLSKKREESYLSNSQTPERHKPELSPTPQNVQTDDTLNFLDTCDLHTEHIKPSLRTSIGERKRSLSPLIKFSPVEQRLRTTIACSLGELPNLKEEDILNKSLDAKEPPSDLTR
UniProt Q99871: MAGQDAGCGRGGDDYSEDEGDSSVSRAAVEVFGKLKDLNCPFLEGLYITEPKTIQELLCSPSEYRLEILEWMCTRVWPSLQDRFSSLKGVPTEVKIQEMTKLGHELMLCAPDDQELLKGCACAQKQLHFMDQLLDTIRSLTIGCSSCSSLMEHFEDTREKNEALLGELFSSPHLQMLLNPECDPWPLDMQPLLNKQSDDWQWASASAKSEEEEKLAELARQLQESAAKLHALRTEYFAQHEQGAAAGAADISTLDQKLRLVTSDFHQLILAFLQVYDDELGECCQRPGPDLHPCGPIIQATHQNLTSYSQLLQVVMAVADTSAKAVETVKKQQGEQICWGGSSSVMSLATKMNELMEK
UniProt Q9BT25: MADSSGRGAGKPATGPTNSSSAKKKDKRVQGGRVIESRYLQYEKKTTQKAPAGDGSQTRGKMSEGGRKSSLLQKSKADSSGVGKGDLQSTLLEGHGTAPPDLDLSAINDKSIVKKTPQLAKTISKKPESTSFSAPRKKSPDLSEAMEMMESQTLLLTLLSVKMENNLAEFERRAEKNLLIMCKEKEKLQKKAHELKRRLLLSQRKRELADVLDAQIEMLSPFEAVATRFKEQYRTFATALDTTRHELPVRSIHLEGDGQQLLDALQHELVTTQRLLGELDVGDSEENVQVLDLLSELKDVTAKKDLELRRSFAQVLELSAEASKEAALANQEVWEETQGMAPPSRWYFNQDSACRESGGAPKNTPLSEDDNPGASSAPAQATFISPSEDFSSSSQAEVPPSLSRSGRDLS
UniProt Q8NA72: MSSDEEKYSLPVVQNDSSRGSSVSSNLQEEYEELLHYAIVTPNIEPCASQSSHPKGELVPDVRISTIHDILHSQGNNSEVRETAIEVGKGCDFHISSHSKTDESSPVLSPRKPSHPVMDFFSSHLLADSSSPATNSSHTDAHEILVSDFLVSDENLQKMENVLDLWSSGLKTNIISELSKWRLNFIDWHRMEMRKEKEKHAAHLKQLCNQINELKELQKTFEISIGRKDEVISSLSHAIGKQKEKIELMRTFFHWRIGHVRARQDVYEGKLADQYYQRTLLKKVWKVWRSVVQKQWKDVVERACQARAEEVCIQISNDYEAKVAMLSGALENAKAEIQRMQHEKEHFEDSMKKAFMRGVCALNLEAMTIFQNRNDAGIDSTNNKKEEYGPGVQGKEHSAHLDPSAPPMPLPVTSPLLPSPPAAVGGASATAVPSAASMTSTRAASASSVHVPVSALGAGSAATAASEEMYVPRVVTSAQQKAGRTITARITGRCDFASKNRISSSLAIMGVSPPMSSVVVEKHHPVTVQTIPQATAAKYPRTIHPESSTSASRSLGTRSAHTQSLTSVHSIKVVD

How the values were obtained:
[1] = target: N-GCP3/MZT1 module of the X. laevis γ-TuRC (X. laevis (endogenous in egg extract)) (UniProt O73787+Q5U4M5); experiment: cryo-EM structure; single particle analysis of the native γ-TuRC affinity-purified from X. laevis egg extract; particles with stoichiometric NEDD1/N-GCP3/MZT1 grapnel; AlphaFold2 models flexibly fitted (MDFF) into the density; both purified
[2] = target: human Augmin TII N-clamp with HAUS8∆[1-138] (human) (UniProt Q9NVX0+Q7Z4H7+Q99871+Q9BT25); experiment: pull-down; PD1: SEC-purified POC5/centrin2 complex and AEC-purified EGFP-tagged Augmin N-clamp on GFP-binder beads, 50 mM HEPES pH 7.4, 150 mM NaCl, 0.1% Tween-20, 1 hr on ice, elution with hTEV protease; both purified

binding [1] | binding [2] | Substance
binds |  | N-GCP3/MZT1 module of the X. laevis γ-TuRC (from UniProt O73787 1-906; Q5U4M5 1-72) (complex)
 | binds | human POC5-HA-TEV-2×FLAG/Centrin2 complex (from UniProt Q8NA72 1-575; P41208 1-172)
